Results as given in PubChem BioAssay AID2685 (National Center for Advancing Translational Sciences (NCATS), 2010).
The list shows a part of the results. Further columns of the screen follow, without active or inactive calls. The list favours compounds with an active or inconclusive main result. Potencies come from curve fits of mixed quality, noted in brackets.

Assay: qHTS Assay for Lipid Storage Modulators in Drosophila S3 Cells;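 as to cell number change: cells counted by Cell Tracker Red CMTPX staining in the red channel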
Conditions: BODIPY lipid droplet fluorescence, 18-24 h; for cell number change: measured here: cell count max response, cells fed with added oleic acid
Procedure, shortened: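 Drosophila S3 cells loaded with oleic acid (400 uM, as added) and compounds at several concentrations; lipid droplets imaged by 488-nm laser-scanning cytometry, 500–530 nm intensity and object ratio to cell channel. Percent activity normalized to 20 uM Triacsin C.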

[1] = measured here: lipid fluorescence (Fed channel) AC50, cells fed with added oleic acid
[2] = measured here: cell number channel AC50, cells fed with added oleic acid

| Structure (SMILES) | cell number change | AC50 [1] | AC50 [2] |
| --- | --- | --- | --- |
| COc1ccc(C(CNC(=O)c2cccc(S(=O)(=O)N(C)c3ccccc3)c2)N2CCCC2)cc1 (stereo unspecified) | -14% | 0.0259 µM [falling, full curve, poor fit] |  |
| CC(/C=C/c1ccc2c(c1)OCO2)=N/NC(=O)c1ccc(C)nc1 | 21.9% | 18.4 µM [rising, single point] |  |
| CN(C)c1ccc(NS(=O)(=O)c2ccc(Cl)cc2)cc1 | -26.6% | 29.1 µM [falling, single point] |  |
| COc1cccc(Nc2nc(-c3sc(NC(=O)c4ccccc4)nc3C)cs2)c1 | 82.4% |  |  |
| O=C1c2ccccc2NC2(CCCC2)N1O | -23.2% | 0.651 µM [falling, full curve] | 0.00517 µM [falling, full curve] |
| O=C(NCCN1CCN(C(=O)c2cccs2)CC1)c1cccs1 | 50.2% | 29.1 µM [rising, single point] | 29.1 µM [rising, single point] |
| NS(=O)(=O)c1ccc(NC(=O)c2cc(=O)c3ccccc3o2)cc1 | 13.7% |  |  |
| COC(=O)C1=C(C)N(C)C(=O)NC1c1cc(Cl)c(O)c(OC)c1 (stereo unspecified) | 5.52% | 0.146 µM [falling, full curve, poor fit] |  |
| CCOC(=O)C1CCN(C(c2cc3ccc(C)cc3[nH]c2=O)c2nnnn2C2CCCCC2)CC1 (stereo unspecified) |  |  | 5.17 µM [rising, single point] |
| CC(C)c1ccc(OCC(=O)NC(=S)Nc2ccc3c4c(cccc24)CC3)cc1 | 7.35% | 18.4 µM [rising, partial curve] |  |
| CCOC(=O)c1cn(Cc2ccccc2)c2cc(C)nn2c1=O | 14.4% | 6.51 µM [falling, single point] | 6.51 µM [falling, single point] |
| COc1ccc(NC(=O)CSc2ccc3nnc(-c4ccccn4)n3n2)cc1 | 7.51% | 6.51 µM [falling, single point] |  |
| Cc1ccc(-c2nc3ncccc3o2)cc1NC(=O)c1ccccc1 | 11.4% |  | 6.51 µM [falling, single point] |
| Cc1nnc(SCC(=O)NC(=O)NC2CCCC2)n1N | -15.7% | 3.26 µM [falling, partial curve, poor fit] | 0.731 µM [falling, full curve, poor fit] |
| Cc1ccc([N+](=O)[O-])cc1NC(=O)/C=C/C(=O)O | -6.43% |  |  |
| COC(=O)N/N=C/C1=CCC2CC1C2(C)C (stereo unspecified) | -66.9% |  | 11.6 µM [falling, partial curve] |
| CCNCC(O)COCC(O)CNCC (stereo unspecified) | 0.415% | 29.1 µM [falling, single point] | 6.51 µM [falling, partial curve, poor fit] |
| Cc1ccc(C(=O)Nc2ccc(Nc3ccccc3)cc2)c(Cl)c1 | -2.19% |  |  |
| CC(Cl)C(=O)NNC(=O)CNS(=O)(=O)c1ccccc1 (stereo unspecified) | 23.9% | 4.11 µM [rising, full curve, poor fit] |  |
| Cc1c(C(=O)NC2CCN(Cc3ccccc3)C2)oc2ccc(Br)cc12 (stereo unspecified) | 16.8% | 7.31 µM [rising, partial curve] |  |
| Cc1cc(C)n(-c2ccc(C(=O)C(C#N)c3nc4ccccc4n3C)cc2)n1 (stereo unspecified) | -9.55% |  |  |

Single values from the results shown.
COc1ccc(C(CNC(=O)c2cccc(S(=O)(=O)N(C)c3ccccc3)c2)N2CCCC2)cc1 (stereo unspecified) | AC50 [1]: 0.0259 µM [falling, full curve, poor fit]
CN(C)c1ccc(NS(=O)(=O)c2ccc(Cl)cc2)cc1 | cell number change: -26.6%

Continuation:

| Structure (SMILES) | cell number change | AC50 [1] | AC50 [2] |
| --- | --- | --- | --- |
| COc1cc(C(C)=O)ccc1OCC(=O)N1CCc2ccccc2C1 | -18.5% | 1.46 µM [falling, full curve] |  |
| CCOC(=O)CCSc1nc(N2CCOCC2)c2c(c1C#N)CC(C)(C)OC2 | -24.8% | 0.651 µM [falling, single point] |  |
| COc1ccc(OCc2nn3c(-c4ccco4)nnc3s2)cc1 | -19.5% | 0.58 µM [rising, full curve, poor fit] |  |
| CC1(C)CC(=O)C2=C(C1)OC(/N=C/N1CCCC1)=C(C#N)C2c1ccccc1 (stereo unspecified) |  | 0.651 µM [falling, single point] | 0.731 µM [falling, single point] |
| CCCCNC(=O)CN1C(=O)c2cccc(N)c2C1=O | -10.1% |  |  |
| N#C/C(=C\c1c[nH]c2ccccc12)C(=O)Nc1ncc(Cc2ccc(Cl)cc2Cl)s1 | -24.4% | 14.6 µM [falling, partial curve] |  |
| CCOC(=O)C1=C(Nc2ccc(C)cc2)CC(C)(O)C(C(=O)OCC)C1c1ccccc1 (stereo unspecified) | 17.9% | 0.58 µM [falling, single point] |  |
| Cc1ccc(SCc2cc(=O)[nH]c(Nc3nc(C)c4ccc(C)cc4n3)n2)cc1 | -4.93% | 0.58 µM [rising, full curve, poor fit] |  |
| O=C(CCN1CCCC1)c1cccs1 | -5.98% | 0.0058 µM [falling, full curve, poor fit] |  |
| Cc1cc2nc(C)c(=O)n(C)c2cc1C | 8.77% | 18.4 µM [rising, single point] |  |
| COc1c(Cl)ccc(Cl)c1C(=O)NCc1ccco1 | 21.1% |  | 0.651 µM [rising, full curve, poor fit] |
| O=C(COc1ccccc1)NCC(=O)N/N=C/c1ccco1 |  | 7.31 µM [falling, partial curve] |  |
| CC(=O)c1c(C)[nH]c(C(=O)OCc2nnc(-c3ccccc3)o2)c1C |  | 1.3 µM [rising, full curve] | 1.3 µM [rising, full curve] |
| CCC1CCCCN1CCCNC(=O)CCNC(=O)Cn1cnc2ccccc2c1=O (stereo unspecified) | 16.2% |  |  |
| CCC(Sc1nncn1C)C(=O)Nc1nnc(-c2ccc(Cl)cc2)s1 (stereo unspecified) |  |  | 6.51 µM [falling, single point] |
| O=S1(=O)CCO[C@H]2Cc3ccccc3[C@H]2N1Cc1cccc(C(F)(F)F)c1 | -16.5% | 29.1 µM [falling, single point] |  |
| CCOc1ccccc1NC1=C(Cl)C(=O)N(c2ccc(OC)cc2)C1=O | 19.9% |  |  |
| CC1CCCC(C)N1NC(=O)c1ccc(Cl)c(S(N)(=O)=O)c1 (stereo unspecified) | -6.58% | 20.6 µM [falling, single point] |  |
| CC(=O)Nc1cccc(C)c1 | 19.3% | 5.17 µM [rising, single point] |  |
| COc1ccc2c(c1OC)C(=O)N(c1cccc(C)c1)C2=O | -9.94% | 0.651 µM [rising, full curve, poor fit] |  |
| CCOc1c(OC(C)=O)ccc(/C=C/c2ccc3cccc(OC)c3n2)c1[N+](=O)[O-] | -27.4% | 7.31 µM [falling, partial curve, poor fit] |  |

| Structure (SMILES) | cell number change | AC50 [1] | AC50 [2] |
| --- | --- | --- | --- |
| COc1ccc(N2CC(C(=O)OCC(=O)Nc3cccc(C)c3C)CC2=O)cc1 (stereo unspecified) | 15.3% | 6.51 µM [rising, partial curve, poor fit] |  |
| CCOC(=O)C1=C(CC)Nc2ccccc2N=C1NC(=O)Nc1ccc(Cl)c(Cl)c1 | -58.4% | 3.66 µM [rising, partial curve] | 29.1 µM [falling, single point] |
| O=C(c1ccc(-n2cncn2)c([N+](=O)[O-])c1)N1CCN(S(=O)(=O)c2ccc(Br)cc2)CC1 | -25.8% | 29.1 µM [falling, single point] |  |
| CCc1ccc(CN(C)C(=O)CCc2nnc(CCc3ccccc3OC)o2)nc1 | -19.5% | 25.9 µM [falling, partial curve, poor fit] |  |
| COc1ccc(N=Cc2c(O)[nH]c3ccccc23)cc1OC | -62.8% |  | 29.1 µM [falling, single point] |
| CCCCNC(=O)CSc1nc2ccsc2c(=O)n1C1CCN(C(=O)OCC)CC1 |  | 20.6 µM [rising, single point] |  |
| Cc1ccn(CCC(=O)NC2CC(C)(C)Cc3c2cnn3-c2ccccc2C)n1 (stereo unspecified) | -7.37% | 6.51 µM [rising, single point] |  |
| COc1ccc(CC(=O)Nc2cc(C)ccc2O)cc1OC | -11.6% | 20.6 µM [falling, partial curve, poor fit] |  |
| CCOC(=O)c1cc(S(=O)(=O)NC2CCCCC2)cn1C | 0.33% |  |  |
| CC(=O)c1ccc(NC(=O)c2cc(Cl)sc2Cl)cc1 | 19.3% | 0.13 µM [rising, full curve, poor fit] |  |
| O=C(CCCc1nc(-c2ccccc2Cl)no1)N1CCOCC1 | -43.8% |  |  |
| CC(C)=CCCC(C)CN1CCC(O)CC1 (stereo unspecified) | -58.8% | 0.517 µM [falling, full curve] | 0.366 µM [falling, full curve] |
| Cc1ccc(N2CC(NS(=O)(=O)c3cccnc3)CC2=O)cc1C (stereo unspecified) |  | 0.146 µM [rising, full curve, poor fit] |  |
| Cc1ccc(Nc2nc(N)c([N+](=O)[O-])c(NCc3ccco3)n2)cc1 | -41.8% | 32.6 µM [falling, partial curve, poor fit] | 6.51 µM [falling, partial curve] |
| COC(=O)Cc1nnc(NC(=O)C(C)C)s1 | 38.6% |  | 18.4 µM [rising, single point] |
| c1ccc(OCCOCCSc2ncccn2)cc1 |  | 0.103 µM [falling, full curve, poor fit] |  |
| Cc1c(NC(=O)CN2C(=O)NC(C)(c3ccccc3)C2=O)c(=O)n(-c2ccccc2)n1C (stereo unspecified) | 28.2% | 1.03 µM [rising, partial curve, poor fit] |  |
| Cc1cc(C)c(OCC(=O)N/N=C/c2ccc3c(c2)OCO3)c(C)c1 | -20.4% | 18.4 µM [falling, single point] |  |
| Cc1cnc(C(=O)OC(C)C(=O)Nc2ccc3c(c2)OCCO3)cn1 (stereo unspecified) | 26.1% |  | 0.92 µM [rising, full curve, poor fit] |
| CCc1ccc(/C=C2/C(=O)N(C)C(=S)N2CC(=O)OC)s1 | -53.9% |  | 29.1 µM [falling, single point] |
